The supplement of paper PMC10849652
Some of the results follow. Residues, ends and D or L forms follow the SMILES beside them. *: point of attachment. Cbz = O=C(OCc1ccccc1)*

Sequences of proteins named here, by UniProt entry; tags and fusion partners are left off. A change or cut given only in a name is not applied to a line headed by its entry.
UniProt P31146: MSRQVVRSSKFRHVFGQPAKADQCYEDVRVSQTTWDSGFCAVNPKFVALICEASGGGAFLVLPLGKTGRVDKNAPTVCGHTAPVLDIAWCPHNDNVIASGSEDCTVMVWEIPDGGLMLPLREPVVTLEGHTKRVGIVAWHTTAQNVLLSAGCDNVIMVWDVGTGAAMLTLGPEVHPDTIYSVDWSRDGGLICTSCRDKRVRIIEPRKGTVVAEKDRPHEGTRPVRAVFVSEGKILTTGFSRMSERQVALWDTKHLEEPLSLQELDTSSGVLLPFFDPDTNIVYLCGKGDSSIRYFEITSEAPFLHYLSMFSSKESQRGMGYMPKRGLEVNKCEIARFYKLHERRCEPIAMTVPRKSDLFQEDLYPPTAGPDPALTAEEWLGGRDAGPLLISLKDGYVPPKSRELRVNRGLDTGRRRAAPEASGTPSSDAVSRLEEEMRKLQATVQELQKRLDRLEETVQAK
UniProt O95825: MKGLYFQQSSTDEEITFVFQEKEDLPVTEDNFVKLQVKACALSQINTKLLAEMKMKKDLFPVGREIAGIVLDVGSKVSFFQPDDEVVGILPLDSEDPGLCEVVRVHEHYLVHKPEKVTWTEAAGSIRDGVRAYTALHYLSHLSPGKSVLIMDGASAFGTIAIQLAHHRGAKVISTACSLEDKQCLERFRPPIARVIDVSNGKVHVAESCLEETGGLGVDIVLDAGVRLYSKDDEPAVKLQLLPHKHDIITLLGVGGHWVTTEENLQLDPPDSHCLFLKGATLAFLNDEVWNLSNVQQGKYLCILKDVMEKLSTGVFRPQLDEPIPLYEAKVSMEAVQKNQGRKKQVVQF
UniProt Q9H9Q2: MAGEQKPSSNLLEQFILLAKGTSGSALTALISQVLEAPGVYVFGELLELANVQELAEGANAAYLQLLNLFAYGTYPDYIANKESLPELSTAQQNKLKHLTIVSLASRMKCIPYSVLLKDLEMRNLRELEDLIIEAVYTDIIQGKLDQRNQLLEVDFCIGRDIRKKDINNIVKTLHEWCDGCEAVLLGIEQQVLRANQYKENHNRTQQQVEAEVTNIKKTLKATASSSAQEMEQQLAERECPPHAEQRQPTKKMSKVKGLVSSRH
UniProt Q9Y2Z9: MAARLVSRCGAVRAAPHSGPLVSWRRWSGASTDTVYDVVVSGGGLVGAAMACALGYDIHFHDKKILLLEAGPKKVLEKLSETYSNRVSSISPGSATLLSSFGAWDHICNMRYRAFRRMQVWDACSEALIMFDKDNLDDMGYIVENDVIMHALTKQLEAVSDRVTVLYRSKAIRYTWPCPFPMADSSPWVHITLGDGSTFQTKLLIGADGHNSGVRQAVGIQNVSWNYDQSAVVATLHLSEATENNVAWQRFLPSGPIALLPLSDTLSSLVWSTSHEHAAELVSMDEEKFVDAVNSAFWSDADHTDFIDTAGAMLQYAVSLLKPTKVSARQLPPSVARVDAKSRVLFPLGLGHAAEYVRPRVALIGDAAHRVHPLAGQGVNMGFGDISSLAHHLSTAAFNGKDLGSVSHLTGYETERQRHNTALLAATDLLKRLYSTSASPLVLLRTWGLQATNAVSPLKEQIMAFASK
UniProt Q5HYK3: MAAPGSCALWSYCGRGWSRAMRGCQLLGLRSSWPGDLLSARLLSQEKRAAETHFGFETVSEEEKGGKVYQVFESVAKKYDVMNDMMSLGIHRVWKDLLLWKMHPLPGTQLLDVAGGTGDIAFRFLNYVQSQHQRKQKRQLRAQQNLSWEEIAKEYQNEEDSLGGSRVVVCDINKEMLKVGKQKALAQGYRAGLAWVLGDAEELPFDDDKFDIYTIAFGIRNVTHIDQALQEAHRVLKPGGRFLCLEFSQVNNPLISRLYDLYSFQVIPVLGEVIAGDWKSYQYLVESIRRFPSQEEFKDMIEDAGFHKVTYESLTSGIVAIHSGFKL
UniProt O75629: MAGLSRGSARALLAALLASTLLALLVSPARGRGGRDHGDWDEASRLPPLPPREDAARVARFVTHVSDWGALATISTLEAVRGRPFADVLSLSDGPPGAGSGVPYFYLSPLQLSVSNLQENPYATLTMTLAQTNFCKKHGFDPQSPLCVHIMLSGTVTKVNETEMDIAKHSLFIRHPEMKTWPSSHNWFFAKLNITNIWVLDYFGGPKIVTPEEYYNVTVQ
UniProt Q9GZQ3, whole entry, looked up: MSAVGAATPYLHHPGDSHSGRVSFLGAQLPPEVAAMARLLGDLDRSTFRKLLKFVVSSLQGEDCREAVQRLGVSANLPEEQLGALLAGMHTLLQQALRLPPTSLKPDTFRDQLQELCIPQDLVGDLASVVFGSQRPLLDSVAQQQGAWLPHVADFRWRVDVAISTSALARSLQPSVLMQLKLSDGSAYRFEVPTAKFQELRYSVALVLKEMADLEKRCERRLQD
UniProt Q9BR76, whole entry, looked up: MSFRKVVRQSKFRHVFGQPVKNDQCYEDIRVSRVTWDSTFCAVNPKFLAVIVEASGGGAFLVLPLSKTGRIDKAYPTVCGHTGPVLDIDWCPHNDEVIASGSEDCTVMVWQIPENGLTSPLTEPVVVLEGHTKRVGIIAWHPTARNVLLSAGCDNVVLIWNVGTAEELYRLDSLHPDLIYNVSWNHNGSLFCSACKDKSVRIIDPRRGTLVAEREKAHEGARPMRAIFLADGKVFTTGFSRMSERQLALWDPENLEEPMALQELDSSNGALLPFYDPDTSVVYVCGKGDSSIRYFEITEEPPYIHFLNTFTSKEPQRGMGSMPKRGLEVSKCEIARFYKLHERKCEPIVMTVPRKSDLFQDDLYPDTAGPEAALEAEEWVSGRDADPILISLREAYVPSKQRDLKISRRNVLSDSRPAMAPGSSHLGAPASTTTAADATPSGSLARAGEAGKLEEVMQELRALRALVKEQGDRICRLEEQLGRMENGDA
UniProt Q9BRF8, whole entry, looked up: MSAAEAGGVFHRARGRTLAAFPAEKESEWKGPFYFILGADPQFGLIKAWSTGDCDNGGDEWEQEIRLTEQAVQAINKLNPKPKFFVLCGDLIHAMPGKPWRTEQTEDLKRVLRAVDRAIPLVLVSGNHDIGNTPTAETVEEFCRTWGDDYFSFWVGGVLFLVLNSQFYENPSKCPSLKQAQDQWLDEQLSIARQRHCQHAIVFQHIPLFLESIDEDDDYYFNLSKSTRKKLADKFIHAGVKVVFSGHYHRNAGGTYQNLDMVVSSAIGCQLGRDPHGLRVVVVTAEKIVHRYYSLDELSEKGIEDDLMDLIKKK
UniProt Q96SW2: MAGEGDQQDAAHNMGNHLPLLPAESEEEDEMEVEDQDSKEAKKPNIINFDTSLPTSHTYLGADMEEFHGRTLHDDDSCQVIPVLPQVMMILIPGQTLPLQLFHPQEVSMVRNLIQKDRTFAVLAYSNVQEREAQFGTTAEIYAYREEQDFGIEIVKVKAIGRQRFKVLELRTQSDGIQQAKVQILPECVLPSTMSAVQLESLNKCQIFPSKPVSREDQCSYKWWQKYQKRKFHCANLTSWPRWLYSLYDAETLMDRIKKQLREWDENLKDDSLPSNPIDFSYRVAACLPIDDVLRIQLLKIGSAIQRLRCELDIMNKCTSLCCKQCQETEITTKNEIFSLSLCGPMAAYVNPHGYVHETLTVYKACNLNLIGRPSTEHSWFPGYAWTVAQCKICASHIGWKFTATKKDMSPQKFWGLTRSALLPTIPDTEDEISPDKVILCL
UniProt A4D0V7: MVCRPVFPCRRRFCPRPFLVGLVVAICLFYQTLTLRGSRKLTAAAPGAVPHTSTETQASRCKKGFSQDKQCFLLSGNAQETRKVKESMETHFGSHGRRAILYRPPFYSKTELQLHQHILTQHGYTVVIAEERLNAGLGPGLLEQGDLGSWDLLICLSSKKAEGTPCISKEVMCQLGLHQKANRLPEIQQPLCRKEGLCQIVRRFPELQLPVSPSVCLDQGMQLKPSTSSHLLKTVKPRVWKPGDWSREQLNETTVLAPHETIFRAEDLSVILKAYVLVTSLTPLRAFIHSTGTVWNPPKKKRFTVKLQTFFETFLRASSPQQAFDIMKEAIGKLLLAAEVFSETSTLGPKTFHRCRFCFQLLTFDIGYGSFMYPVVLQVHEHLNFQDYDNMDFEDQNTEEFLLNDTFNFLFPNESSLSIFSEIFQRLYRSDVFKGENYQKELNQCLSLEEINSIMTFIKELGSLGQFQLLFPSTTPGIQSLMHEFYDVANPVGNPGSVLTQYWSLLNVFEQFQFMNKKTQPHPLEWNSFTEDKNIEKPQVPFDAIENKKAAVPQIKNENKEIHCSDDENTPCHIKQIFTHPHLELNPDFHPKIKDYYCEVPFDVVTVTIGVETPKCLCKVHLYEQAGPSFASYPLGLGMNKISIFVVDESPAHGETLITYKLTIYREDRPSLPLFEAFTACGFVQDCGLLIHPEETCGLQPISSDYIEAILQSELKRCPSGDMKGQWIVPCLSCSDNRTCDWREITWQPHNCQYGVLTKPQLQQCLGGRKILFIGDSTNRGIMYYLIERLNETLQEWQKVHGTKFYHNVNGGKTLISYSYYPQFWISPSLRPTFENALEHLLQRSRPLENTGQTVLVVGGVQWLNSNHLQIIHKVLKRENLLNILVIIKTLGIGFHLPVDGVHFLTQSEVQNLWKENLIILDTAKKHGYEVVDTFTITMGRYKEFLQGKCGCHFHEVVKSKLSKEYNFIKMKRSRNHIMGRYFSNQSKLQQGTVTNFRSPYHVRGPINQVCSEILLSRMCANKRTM
UniProt P61201: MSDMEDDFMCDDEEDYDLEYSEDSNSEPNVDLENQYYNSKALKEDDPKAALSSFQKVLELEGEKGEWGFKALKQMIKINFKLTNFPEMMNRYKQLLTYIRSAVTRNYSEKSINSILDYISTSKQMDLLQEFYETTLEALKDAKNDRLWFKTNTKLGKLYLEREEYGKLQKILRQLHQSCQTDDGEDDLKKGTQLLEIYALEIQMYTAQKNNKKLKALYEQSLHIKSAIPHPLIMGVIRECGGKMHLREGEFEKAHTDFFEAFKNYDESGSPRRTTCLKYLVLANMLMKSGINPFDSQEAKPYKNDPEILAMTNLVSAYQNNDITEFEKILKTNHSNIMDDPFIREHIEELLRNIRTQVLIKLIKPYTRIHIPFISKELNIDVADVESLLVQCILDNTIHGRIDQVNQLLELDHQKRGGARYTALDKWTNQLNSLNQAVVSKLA
UniProt Q9ULV4, whole entry, looked up: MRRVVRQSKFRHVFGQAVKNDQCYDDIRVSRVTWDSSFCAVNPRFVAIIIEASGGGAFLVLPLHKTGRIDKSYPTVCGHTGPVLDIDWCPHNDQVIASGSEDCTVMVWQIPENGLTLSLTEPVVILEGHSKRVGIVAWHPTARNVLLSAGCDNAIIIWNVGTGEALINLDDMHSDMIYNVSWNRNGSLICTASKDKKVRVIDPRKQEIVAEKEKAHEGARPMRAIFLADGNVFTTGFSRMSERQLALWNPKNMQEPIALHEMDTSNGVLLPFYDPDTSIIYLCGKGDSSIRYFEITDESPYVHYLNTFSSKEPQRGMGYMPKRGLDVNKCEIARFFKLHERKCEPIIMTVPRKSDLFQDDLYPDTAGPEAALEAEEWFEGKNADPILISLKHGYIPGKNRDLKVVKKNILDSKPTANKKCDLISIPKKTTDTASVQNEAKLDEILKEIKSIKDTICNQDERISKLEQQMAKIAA
UniProt Q9P2I0: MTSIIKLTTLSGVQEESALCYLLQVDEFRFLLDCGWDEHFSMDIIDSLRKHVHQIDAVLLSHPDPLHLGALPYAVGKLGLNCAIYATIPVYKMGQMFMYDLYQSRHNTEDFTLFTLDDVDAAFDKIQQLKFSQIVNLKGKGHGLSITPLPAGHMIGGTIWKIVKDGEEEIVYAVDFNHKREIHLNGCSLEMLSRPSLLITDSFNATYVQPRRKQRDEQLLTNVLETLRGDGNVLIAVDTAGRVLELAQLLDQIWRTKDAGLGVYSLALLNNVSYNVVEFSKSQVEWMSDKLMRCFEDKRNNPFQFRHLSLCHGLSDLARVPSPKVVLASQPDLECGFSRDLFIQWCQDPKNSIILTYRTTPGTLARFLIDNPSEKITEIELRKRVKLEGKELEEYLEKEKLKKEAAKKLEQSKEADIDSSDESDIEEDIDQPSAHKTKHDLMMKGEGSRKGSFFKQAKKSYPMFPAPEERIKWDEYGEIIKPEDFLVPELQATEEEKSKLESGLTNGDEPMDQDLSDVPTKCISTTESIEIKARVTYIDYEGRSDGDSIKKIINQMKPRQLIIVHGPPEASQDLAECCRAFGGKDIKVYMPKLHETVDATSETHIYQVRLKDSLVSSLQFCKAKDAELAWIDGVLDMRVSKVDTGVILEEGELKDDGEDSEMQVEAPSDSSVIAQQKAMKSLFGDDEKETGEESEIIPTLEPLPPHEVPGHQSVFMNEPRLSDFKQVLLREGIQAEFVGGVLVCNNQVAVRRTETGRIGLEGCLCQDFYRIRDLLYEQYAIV

What was measured:
Assay in all cases: log2 fold change, soluble protein after heating vs DMSO (PISA); higher = thermal stabilisation; K562 cells, 10 uM, 30 min; active = over 0.2 and 3.5 SD of the protein, either way, in both replicates (recomputed)
erlotinib = compound: C#Cc1cccc(Nc2ncnc3cc(OCCOC)c(OCCOC)cc23)c1 [erlotinib]
Method in brief: (§1)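 Values are thermal stability changes relative to control samples and are taken from duplicates. They are stated as log2 fold changes. Before quantification by TMTpro 16plex LC-MS/MS with equalised channel sums, K562 cells at 2×10^6 cells/mL were treated with 10 μM compound for 30 min, heated in aliquots for 3 min across 48°C-58°C, pooled, extracted in PBS with 0.5% NP-40 at 4°C, and centrifuged at 21,000xg for 90 min to give the soluble supernatant.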

[1] = compound: C/C(=N\NC(=O)C1=CC(=CC=C1)S(=O)(=O)N2CCOCC2)/C3=C(C=CC(=C3)Cl)O
Method in brief: as §1

[2] = compound: C1=CC(=C(C=C1Cl)C2=NC3=NC=CN=C3C(=N2)NC4=CC=NC=C4)F
Method in brief: as §1

[3] = compound: C1=CC(=CC=C1C2=NC3=C(N2)C=C(C=C3)C(=O)N)OC4=CC=C(C=C4)Cl
Method in brief: as §1

[4] = compound: C1=CC2=C(C=CC(=C2)/C=C\3/C(=O)NC(=NCC4=CC=CS4)S3)N=C1
Method in brief: as §1

[5] = compound: C1=CC2=NC=CN=C2C=C1/C=C/3\C(=O)NC(=O)S3
Method in brief: as §1

[6] = compound: C1=CC=C(C=C1)C2=NC(=C(N2)C3=CC=NC=C3)C4=CC(=C(C=C4)Cl)O
Method in brief: as §1

[7] = compound: C1=CC=C2C(=C1)C3=NNC4=CC=CC(=C43)C2=O
Method in brief: as §1

[8] = compound: C1CCN(C1)C(=O)NC2=CC=CC(=C2)NC3=NC=C(C(=N3)NCCC4=CN=CN4)Br
Method in brief: as §1

[9] = compound: C1CN(CCC1(CC2=CC=C(C=C2)Cl)N)C3=NC=NC4=C3C=CN4
Method in brief: as §1

IRAK-1-4 Inhibitor I = compound: C1COCCN1CCN2C3=CC=CC=C3N=C2NC(=O)C4=CC(=CC=C4)[N+](=O)[O-] [IRAK-1-4 Inhibitor I]
Method in brief: as §1

ibrutinib = compound: C=CC(=O)N1CCC[C@@H](n2nc(-c3ccc(Oc4ccccc4)cc3)c3c(N)ncnc32)C1 [ibrutinib]
Method in brief: as §1

[10] = compound: CC(=O)c1cnc2ccc(-c3cc(Cl)c(O)c(Cl)c3)nc2c1N[C@H]1CC[C@H](CN(C)C)CC1
Method in brief: as §1

ralimetinib = compound: CC(C)(C)Cn1c(N)nc2ccc(-c3[nH]c(C(C)(C)C)nc3-c3ccc(F)cc3)nc21 [ralimetinib]
Method in brief: as §1

[11] = compound: CC(C)(O)CC(=O)NCCn1ccc2ncnc(Nc3ccc(Oc4cccc(C(F)(F)F)c4)c(Cl)c3)c21
Method in brief: as §1

[12] = compound: CC(C)C1=C2N=C(C=C(N2N=C1)NCC3=CC=CC=C3)NCCCCCCN
Method in brief: as §1

[13] = compound: CC(C)C[C@@H](C=O)NC(=O)[C@H](CC(C)C)NC(=O)[C@H](CC(C)C)NC(=O)OCc1ccccc1
Method in brief: as §1

pinometostat = compound: CC(C)N(C[C@H]1O[C@@H](n2cnc3c(N)ncnc32)[C@H](O)[C@@H]1O)[C@H]1C[C@@H](CCc2nc3cc(C(C)(C)C)ccc3[nH]2)C1 [pinometostat]
Method in brief: as §1

[14] = compound: CC1=C(C(CC(=O)N1)C2=CC=C(C=C2)C(F)(F)F)C(=O)NC3=C(C=C4C(=C3)C=NN4)F
Method in brief: as §1

[15] = compound: CC1=C(C2=C(C=C1)C(=O)C3=CC=CC=C3N2CCCN)C
Method in brief: as §1

Measured: log2 fold change

CORO1A (UniProt P31146)
inactive: erlotinib -0.009 | [1] 0.069 | [2] 0.034 | [3] -0.003 | [4] 0.052 | [5] 0.027 | [6] 0.01 | [7] -0.006 | [8] -0.059 | [9] -0.01 | IRAK-1-4 Inhibitor I -0.027 | ibrutinib 0.001 | [10] -0.02 | ralimetinib 0 | [11] -0.01 | [12] -0.099 | [13] 0.114 | pinometostat 0 | [14] 0.029 | [15] -0.022

CRYZL1 (UniProt O95825)
inactive: erlotinib 0.009 | [1] 0.02 | [2] 0.044 | [3] 0.015 | [4] -0.022 | [5] 0.012 | [6] 0.004 | [7] -0.018 | [8] -0.003 | [9] 0.029 | IRAK-1-4 Inhibitor I 0.057 | ibrutinib 0.01 | [10] 0.033 | ralimetinib -0.028 | [11] 0.001 | [12] 0.042 | [13] 0.021 | pinometostat -0.046 | [14] 0.007 | [15] -0.002

COPS7B (UniProt Q9H9Q2)
inactive: erlotinib -0.031 | [1] 0.037 | [2] 0.067 | [3] -0.022 | [4] -0.076 | [5] 0.009 | [6] 0.055 | [7] 0.016 | [8] -0.01 | [9] 0.036 | IRAK-1-4 Inhibitor I 0.006 | ibrutinib -0.002 | [10] 0.048 | ralimetinib -0.018 | [11] -0.063 | [12] 0.033 | [13] -0.002 | pinometostat -0.073 | [14] 0.004 | [15] -0.1

COQ6 (UniProt Q9Y2Z9)
inactive: erlotinib 0.013 | [1] 0.051 | [2] 0.036 | [3] -0.015 | [4] 0.015 | [5] -0.045 | [6] 0.14 | [7] 0.119 | [8] 0.025 | [9] -0.026 | IRAK-1-4 Inhibitor I 0 | ibrutinib 0.089 | [10] 0.013 | ralimetinib 0.111 | [11] 0.001 | [12] -0.057 | [13] -0.089 | pinometostat -0.045 | [14] -0.033 | [15] 0.047

COQ5 (UniProt Q5HYK3)
inactive: erlotinib 0.008 | [1] 0.134 | [2] 0.044 | [3] 0.058 | [4] 0.075 | [5] 0.034 | [6] -0.008 | [7] 0.027 | [8] 0.03 | [9] 0.012 | IRAK-1-4 Inhibitor I 0.031 | ibrutinib 0.065 | [10] -0.075 | ralimetinib -0.008 | [11] -0.055 | [12] -0.075 | [13] 0.004 | pinometostat -0.022 | [14] -0.012 | [15] -0.046

CREG1 (UniProt O75629)
inactive: erlotinib -0.028 | [1] 0.005 | [2] -0.007 | [3] 0.057 | [4] 0.03 | [5] -0.019 | [6] 0.033 | [7] -0.056 | [8] -0.053 | [9] 0.051 | IRAK-1-4 Inhibitor I 0.051 | ibrutinib 0.028 | [10] -0.001 | ralimetinib -0.001 | [11] 0.034 | [12] -0.019 | [13] 0.032 | pinometostat 0.002 | [14] -0.017 | [15] 0.096

COMMD5 (UniProt Q9GZQ3)
inactive: erlotinib -0.032 | [1] 0.028 | [2] 0.043 | [3] -0.003 | [4] 0.044 | [5] 0.081 | [6] -0.002 | [7] 0.031 | [8] -0.065 | [9] -0.005 | IRAK-1-4 Inhibitor I -0.019 | ibrutinib -0.088 | [10] 0.009 | ralimetinib -0.02 | [11] -0.097 | [12] -0.066 | [13] -0.013 | pinometostat -0.118 | [14] 0.041 | [15] 0.1

CORO1B (UniProt Q9BR76)
inactive: erlotinib 0.021 | [1] 0.065 | [2] 0.011 | [3] -0.008 | [4] -0.006 | [5] 0.025 | [6] 0.009 | [7] 0.053 | [8] -0.029 | [9] 0.018 | IRAK-1-4 Inhibitor I 0.014 | ibrutinib -0.042 | [10] -0.019 | ralimetinib 0.004 | [11] -0.007 | [12] -0.013 | [13] 0.038 | pinometostat -0.042 | [14] -0.015 | [15] 0.003

Fetched one by one from above (2):
COMMD5 (UniProt Q9GZQ3)
inactive: erlotinib -0.032 | [1] 0.028 | [2] 0.043 | [3] -0.003 | [4] 0.044 | [5] 0.081 | [6] -0.002 | [7] 0.031 | [8] -0.065 | [9] -0.005 | IRAK-1-4 Inhibitor I -0.019 | ibrutinib -0.088 | [10] 0.009 | ralimetinib -0.02 | [11] -0.097 | [12] -0.066 | [13] -0.013 | pinometostat -0.118 | [14] 0.041 | [15] 0.1

CREG1 (UniProt O75629)
inactive: erlotinib -0.028 | [1] 0.005 | [2] -0.007 | [3] 0.057 | [4] 0.03 | [5] -0.019 | [6] 0.033 | [7] -0.056 | [8] -0.053 | [9] 0.051 | IRAK-1-4 Inhibitor I 0.051 | ibrutinib 0.028 | [10] -0.001 | ralimetinib -0.001 | [11] 0.034 | [12] -0.019 | [13] 0.032 | pinometostat 0.002 | [14] -0.017 | [15] 0.096

(list continues)

COPB2 (UniProt P35606)
inactive: erlotinib -0.02 | [1] 0.031 | [2] 0.067 | [3] -0.01 | [4] 0.004 | [5] 0.019 | [6] 0.007 | [7] -0.013 | [8] -0.003 | [9] 0.05 | IRAK-1-4 Inhibitor I -0.001 | ibrutinib -0.005 | [10] 0.008 | ralimetinib -0.006 | [11] -0.015 | [12] 0.05 | [13] -0.013 | pinometostat -0.003 | [14] -0.002 | [15] 0.023

CPPED1 (UniProt Q9BRF8)
inactive: erlotinib -0.012 | [1] -0.032 | [2] 0.023 | [3] 0.029 | [4] 0.03 | [5] 0.02 | [6] -0.016 | [7] -0.005 | [8] 0.02 | [9] 0.029 | IRAK-1-4 Inhibitor I -0.003 | ibrutinib -0.068 | [10] -0.006 | ralimetinib -0.02 | [11] -0.046 | [12] 0.044 | [13] -0.053 | pinometostat -0.069 | [14] 0.015 | [15] -0.052

CRBN (UniProt Q96SW2)
inactive: erlotinib 0.043 | [1] 0.026 | [2] 0.028 | [3] 0.011 | [4] -0.021 | [5] 0.03 | [6] -0.036 | [7] 0 | [8] -0.036 | [9] 0.037 | IRAK-1-4 Inhibitor I 0.043 | ibrutinib -0.003 | [10] -0.05 | ralimetinib -0.036 | [11] -0.001 | [12] 0.05 | [13] 0.031 | pinometostat 0.02 | [14] 0.053 | [15] -0.006

CPED1 (UniProt A4D0V7)
inactive: erlotinib -0.024 | [1] -0.15 | [2] -0.084 | [3] 0.072 | [4] -0.179 | [5] -0.056 | [6] 0.01 | [7] -0.033 | [8] -0.073 | [9] -0.022 | IRAK-1-4 Inhibitor I -0.134 | ibrutinib -0.048 | [10] -0.236 | ralimetinib -0.01 | [11] -0.045 | [12] 0.008 | [13] 0.142 | pinometostat 0.076 | [14] 0.125 | [15] -0.122

COPS2 (UniProt P61201)
inactive: erlotinib -0.015 | [1] 0.071 | [2] 0.036 | [3] -0.002 | [4] 0.02 | [5] 0.021 | [6] 0.024 | [7] 0.013 | [8] -0.027 | [9] 0.033 | IRAK-1-4 Inhibitor I 0.019 | ibrutinib -0.015 | [10] -0.024 | ralimetinib -0.046 | [11] -0.019 | [12] 0.013 | [13] -0.026 | pinometostat -0.052 | [14] -0.021 | [15] 0.012

CORO1C isoform 3 (UniProt Q9ULV4)
inactive: erlotinib -0.012 | [1] -0.011 | [2] 0.042 | [3] -0.061 | [4] -0.071 | [5] 0.069 | [6] 0.044 | [7] 0.022 | [8] -0.013 | [9] -0.057 | IRAK-1-4 Inhibitor I -0.005 | ibrutinib -0.026 | [10] 0.034 | ralimetinib 0.012 | [11] 0.046 | [12] 0.114 | [13] 0.011 | pinometostat -0.036 | [14] -0.064 | [15] 0.003

CPSF2 (UniProt Q9P2I0)
inactive: erlotinib -0.01 | [1] 0.035 | [2] -0.052 | [3] 0.046 | [4] -0.004 | [5] 0.076 | [6] -0.125 | [7] 0.009 | [8] -0.018 | [9] -0.034 | IRAK-1-4 Inhibitor I -0.066 | ibrutinib -0.071 | [10] 0.039 | ralimetinib 0.028 | [11] -0.098 | [12] -0.047 | [13] 0.159 | pinometostat 0.131 | [14] 0.033 | [15] -0.039
